In this assay the target is Flag-tagged NEMO (UniProt Q9Y6K9). As to the kind of experiment: co-IP; HEK293T or N4BP1-/- HEK293T cells co-transfected with HA-N4BP1 (or deletion mutants) and Flag-NEMO (or deletion mutants); NP-40 lysis buffer; immunoprecipitation and immunoblot. On the technique in general: A western blot detects proteins with antibodies after separation by electrophoresis.

Amino acid sequences for entries named in this document (tags omitted). A change or cut given only in a name is not applied to a line headed by its entry.
UniProt Q9Y6K9: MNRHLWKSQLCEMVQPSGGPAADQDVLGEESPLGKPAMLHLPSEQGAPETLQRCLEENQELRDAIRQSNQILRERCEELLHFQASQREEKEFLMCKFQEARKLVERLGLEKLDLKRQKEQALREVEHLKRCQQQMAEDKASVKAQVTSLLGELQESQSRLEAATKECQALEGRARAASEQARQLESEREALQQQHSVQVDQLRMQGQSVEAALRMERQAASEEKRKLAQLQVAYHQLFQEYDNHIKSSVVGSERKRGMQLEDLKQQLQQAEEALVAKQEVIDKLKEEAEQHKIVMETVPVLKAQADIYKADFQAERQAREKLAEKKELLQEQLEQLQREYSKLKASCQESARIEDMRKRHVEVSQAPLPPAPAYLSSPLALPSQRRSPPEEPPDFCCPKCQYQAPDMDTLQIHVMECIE
UniProt O75113: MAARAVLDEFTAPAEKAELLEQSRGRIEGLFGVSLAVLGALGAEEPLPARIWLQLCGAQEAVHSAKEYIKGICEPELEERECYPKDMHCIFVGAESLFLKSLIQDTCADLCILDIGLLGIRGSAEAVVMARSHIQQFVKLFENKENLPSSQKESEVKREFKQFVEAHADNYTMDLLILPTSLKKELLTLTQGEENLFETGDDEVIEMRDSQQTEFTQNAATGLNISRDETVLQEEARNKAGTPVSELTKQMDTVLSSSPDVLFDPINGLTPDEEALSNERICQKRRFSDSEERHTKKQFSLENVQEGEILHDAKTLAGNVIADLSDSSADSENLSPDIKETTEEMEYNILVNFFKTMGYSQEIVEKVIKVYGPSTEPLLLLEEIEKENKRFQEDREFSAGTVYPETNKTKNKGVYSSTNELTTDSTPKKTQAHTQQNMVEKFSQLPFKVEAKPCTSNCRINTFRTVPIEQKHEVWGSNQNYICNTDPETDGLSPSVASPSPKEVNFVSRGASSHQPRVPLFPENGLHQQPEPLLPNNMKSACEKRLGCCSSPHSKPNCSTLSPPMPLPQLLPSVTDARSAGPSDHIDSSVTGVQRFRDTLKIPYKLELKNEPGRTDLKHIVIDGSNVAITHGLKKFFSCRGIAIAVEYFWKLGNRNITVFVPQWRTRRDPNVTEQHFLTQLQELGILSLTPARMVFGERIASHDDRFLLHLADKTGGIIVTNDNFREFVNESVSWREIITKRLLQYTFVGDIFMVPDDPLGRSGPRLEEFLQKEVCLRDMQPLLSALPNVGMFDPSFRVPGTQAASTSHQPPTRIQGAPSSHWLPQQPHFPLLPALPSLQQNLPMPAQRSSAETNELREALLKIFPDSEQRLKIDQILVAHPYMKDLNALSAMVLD

In paper PMC7925594 one finds binding data, which are given here for one substance.

These are yes or no findings as the source states them, for the method shown. Binding seen in cells or lysates may run through a third protein. A result given as binding can be weak or reduced; the word gives no strength.

For “HA-N4BP1 with NYN domain deletion (from UniProt O75113)”, the binding entry is recorded as “binds”.
